Test results reported in publication PMC6292963.
These are yes or no findings as the source states them, for the method shown. Binding seen in cells or lysates may run through a third protein. Some entries that bind do so weakly or less than the wild type.

T1: starch synthase I (rice, japonica (endogenous in developing seeds)) (UniProt Q0DEC8)
T1 sequence: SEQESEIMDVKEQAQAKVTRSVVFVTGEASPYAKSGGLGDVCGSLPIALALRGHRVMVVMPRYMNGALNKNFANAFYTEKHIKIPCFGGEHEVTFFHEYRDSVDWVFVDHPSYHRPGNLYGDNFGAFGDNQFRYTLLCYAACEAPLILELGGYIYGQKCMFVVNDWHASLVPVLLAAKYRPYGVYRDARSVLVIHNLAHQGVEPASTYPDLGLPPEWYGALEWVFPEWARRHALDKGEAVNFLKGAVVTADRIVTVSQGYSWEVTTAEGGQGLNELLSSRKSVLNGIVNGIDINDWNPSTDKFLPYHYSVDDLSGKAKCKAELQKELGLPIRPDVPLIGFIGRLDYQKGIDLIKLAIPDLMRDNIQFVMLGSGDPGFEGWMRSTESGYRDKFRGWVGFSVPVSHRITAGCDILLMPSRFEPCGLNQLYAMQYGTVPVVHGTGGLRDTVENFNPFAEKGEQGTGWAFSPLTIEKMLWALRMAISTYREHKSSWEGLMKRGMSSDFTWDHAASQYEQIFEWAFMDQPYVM

T2: starch synthase IIa (rice, japonica (endogenous in developing seeds)) (UniProt Q0DDE3)
T2 sequence: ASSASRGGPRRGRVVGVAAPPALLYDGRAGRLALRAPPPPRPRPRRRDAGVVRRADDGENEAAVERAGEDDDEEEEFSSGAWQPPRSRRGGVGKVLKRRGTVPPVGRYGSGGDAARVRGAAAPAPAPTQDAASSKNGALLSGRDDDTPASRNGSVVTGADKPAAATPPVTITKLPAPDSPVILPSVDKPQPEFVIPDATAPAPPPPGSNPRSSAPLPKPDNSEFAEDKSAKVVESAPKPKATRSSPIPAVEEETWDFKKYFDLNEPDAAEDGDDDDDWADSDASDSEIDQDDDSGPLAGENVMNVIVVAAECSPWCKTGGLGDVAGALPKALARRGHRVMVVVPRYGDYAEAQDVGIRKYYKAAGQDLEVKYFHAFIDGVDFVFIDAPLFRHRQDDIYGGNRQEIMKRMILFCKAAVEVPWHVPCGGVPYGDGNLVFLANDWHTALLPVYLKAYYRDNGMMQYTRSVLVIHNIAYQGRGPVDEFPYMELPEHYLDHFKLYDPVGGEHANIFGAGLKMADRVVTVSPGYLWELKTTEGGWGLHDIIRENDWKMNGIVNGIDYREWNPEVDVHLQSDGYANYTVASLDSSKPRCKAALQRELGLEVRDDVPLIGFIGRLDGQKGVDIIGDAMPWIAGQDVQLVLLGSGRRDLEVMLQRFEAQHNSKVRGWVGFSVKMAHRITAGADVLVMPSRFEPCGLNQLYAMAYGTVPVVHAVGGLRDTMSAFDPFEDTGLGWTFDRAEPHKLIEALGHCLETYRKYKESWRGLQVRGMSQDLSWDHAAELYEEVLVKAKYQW


What was measured:
[1] = target: T1, starch synthase I (rice, japonica (endogenous in developing seeds)); assay: co-IP; soluble proteins from developing rice seeds (wild types Nip, Kin, Akt; mutant lines ss1, EM10 and #1411) extracted in 10 mM Hepes-KOH pH 7.5, 100 mM NaCl, protease inhibitor; incubated with isozyme-specific antibodies and protein A sepharose; extensive washing; captured proteins detected by western blotting; control with pre-immune sera
[2] = target: T2, starch synthase IIa (rice, japonica (endogenous in developing seeds)); assay: as above

| binding [1] | binding [2] | Binder |
| --- | --- | --- |
| binds |  | starch synthase IIa (enzyme, UniProt Q0DDE3 17-810) ASSASRGGPRRGRVVGVAAPPALLYDGRAGRLALRAPPPPRPRPRRRDAGVVRRADDGENEAAVERAGEDDDEEEEFSSGAWQPPRSRRGGVGKVLKRRGTVPPVGRYGSGGDAARVRGAAAPAPAPTQDAASSKNGALLSGRDDDTPASRNGSVVTGADKPAAATPPVTITKLPAPDSPVILPSVDKPQPEFVIPDATAPAPPPPGSNPRSSAPLPKPDNSEFAEDKSAKVVESAPKPKATRSSPIPAVEEETWDFKKYFDLNEPDAAEDGDDDDDWADSDASDSEIDQDDDSGPLAGENVMNVIVVAAECSPWCKTGGLGDVAGALPKALARRGHRVMVVVPRYGDYAEAQDVGIRKYYKAAGQDLEVKYFHAFIDGVDFVFIDAPLFRHRQDDIYGGNRQEIMKRMILFCKAAVEVPWHVPCGGVPYGDGNLVFLANDWHTALLPVYLKAYYRDNGMMQYTRSVLVIHNIAYQGRGPVDEFPYMELPEHYLDHFKLYDPVGGEHANIFGAGLKMADRVVTVSPGYLWELKTTEGGWGLHDIIRENDWKMNGIVNGIDYREWNPEVDVHLQSDGYANYTVASLDSSKPRCKAALQRELGLEVRDDVPLIGFIGRLDGQKGVDIIGDAMPWIAGQDVQLVLLGSGRRDLEVMLQRFEAQHNSKVRGWVGFSVKMAHRITAGADVLVMPSRFEPCGLNQLYAMAYGTVPVVHAVGGLRDTMSAFDPFEDTGLGWTFDRAEPHKLIEALGHCLETYRKYKESWRGLQVRGMSQDLSWDHAAELYEEVLVKAKYQW |
| binds | binds | starch branching enzyme I (enzyme, UniProt Q01401 65-820) TMVTVVEEVDHLPIYDLDPKLEEFKDHFNYRIKRYLDQKCLIEKHEGGLEEFSKGYLKFGINTVDGATIYREWAPAAQEAQLIGEFNNWNGAKHKMEKDKFGIWSIKISHVNGKPAIPHNSKVKFRFRHGGGAWVDRIPAWIRYATFDASKFGAPYDGVHWDPPACERYVFKHPRPPKPDAPRIYEAHVGMSGEEPEVSTYREFADNVLPRIRANNYNTVQLMAIMEHSYYASFGYHVTNFFAVSSRSGTPEDLKYLVDKAHSLGLRVLMDVVHSHASNNVTDGLNGYDVGQNTHESYFHTGDRGYHKLWDSRLFNYANWEVLRFLLSNLRYWMDEFMFDGFRFDGVTSMLYHHHGINKGFTGNYKEYFSLDTDVDAIVYMMLANHLMHKLLPEATIVAEDVSGMPVLCRPVDEGGVGFDFRLAMAIPDRWIDYLKNKEDRKWSMSEIVQTLTNRRYTEKCIAYAESHDQSIVGDKTIAFLLMDKEMYTGMSDLQPASPTINRGIALQKMIHFITMALGGDGYLNFMGNEFGHPEWIDFPREGNNWSYDKCRRQWSLVDTDHLRYKYMNAFDQAMNALEEEFSFLSSSKQIVSDMNEKDKVIVFERGDLVFVFNFHPNKTYKGYKVGCDLPGKYRVALDSDALVFGGHGRVGHDVDHFTSPEGMPGVPETNFNNRPNSFKVLSPPRTCVAYYRVDEDREELRRGGAVASGKIVTEYIDVEATSGETISGGWKGSEKDDCGKKGMKFVFRSSDEDCK |
